Measurements published in publication PMC7862231.
Results are given in words; binding and its absence hold for the method and conditions named. In cells and extracts the contact can be indirect. Some entries that bind do so weakly or less than the wild type. For part of these data: Where a sequence is shown, tags or fusion partners need not be part of it. One block for each binder: values may come before it.

Legend:
[1] = biological target: T1, MAX interactor 1 (Mxi1), exogenously expressed in HEK293T cells (human) (UniProt P50539); test: co-IP; HEK293T cells transfected with indicated plasmids for 24 h, MG132 (10 uM) for 4 h; lysed in NETN buffer; co-IP with S beads or Myc agarose, western blotting
T1 sequence: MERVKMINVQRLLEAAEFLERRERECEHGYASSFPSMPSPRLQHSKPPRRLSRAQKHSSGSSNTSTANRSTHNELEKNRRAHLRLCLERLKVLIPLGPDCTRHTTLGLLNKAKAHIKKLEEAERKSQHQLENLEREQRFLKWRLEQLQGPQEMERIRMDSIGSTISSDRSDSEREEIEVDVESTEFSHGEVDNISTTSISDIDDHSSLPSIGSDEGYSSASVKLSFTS

[2] = biological target: T2, Ubiquitin-conjugating enzyme E2O (UBE2O), exogenously expressed in HEK293T cells (human) (UniProt Q9C0C9); test: as above
T2 sequence: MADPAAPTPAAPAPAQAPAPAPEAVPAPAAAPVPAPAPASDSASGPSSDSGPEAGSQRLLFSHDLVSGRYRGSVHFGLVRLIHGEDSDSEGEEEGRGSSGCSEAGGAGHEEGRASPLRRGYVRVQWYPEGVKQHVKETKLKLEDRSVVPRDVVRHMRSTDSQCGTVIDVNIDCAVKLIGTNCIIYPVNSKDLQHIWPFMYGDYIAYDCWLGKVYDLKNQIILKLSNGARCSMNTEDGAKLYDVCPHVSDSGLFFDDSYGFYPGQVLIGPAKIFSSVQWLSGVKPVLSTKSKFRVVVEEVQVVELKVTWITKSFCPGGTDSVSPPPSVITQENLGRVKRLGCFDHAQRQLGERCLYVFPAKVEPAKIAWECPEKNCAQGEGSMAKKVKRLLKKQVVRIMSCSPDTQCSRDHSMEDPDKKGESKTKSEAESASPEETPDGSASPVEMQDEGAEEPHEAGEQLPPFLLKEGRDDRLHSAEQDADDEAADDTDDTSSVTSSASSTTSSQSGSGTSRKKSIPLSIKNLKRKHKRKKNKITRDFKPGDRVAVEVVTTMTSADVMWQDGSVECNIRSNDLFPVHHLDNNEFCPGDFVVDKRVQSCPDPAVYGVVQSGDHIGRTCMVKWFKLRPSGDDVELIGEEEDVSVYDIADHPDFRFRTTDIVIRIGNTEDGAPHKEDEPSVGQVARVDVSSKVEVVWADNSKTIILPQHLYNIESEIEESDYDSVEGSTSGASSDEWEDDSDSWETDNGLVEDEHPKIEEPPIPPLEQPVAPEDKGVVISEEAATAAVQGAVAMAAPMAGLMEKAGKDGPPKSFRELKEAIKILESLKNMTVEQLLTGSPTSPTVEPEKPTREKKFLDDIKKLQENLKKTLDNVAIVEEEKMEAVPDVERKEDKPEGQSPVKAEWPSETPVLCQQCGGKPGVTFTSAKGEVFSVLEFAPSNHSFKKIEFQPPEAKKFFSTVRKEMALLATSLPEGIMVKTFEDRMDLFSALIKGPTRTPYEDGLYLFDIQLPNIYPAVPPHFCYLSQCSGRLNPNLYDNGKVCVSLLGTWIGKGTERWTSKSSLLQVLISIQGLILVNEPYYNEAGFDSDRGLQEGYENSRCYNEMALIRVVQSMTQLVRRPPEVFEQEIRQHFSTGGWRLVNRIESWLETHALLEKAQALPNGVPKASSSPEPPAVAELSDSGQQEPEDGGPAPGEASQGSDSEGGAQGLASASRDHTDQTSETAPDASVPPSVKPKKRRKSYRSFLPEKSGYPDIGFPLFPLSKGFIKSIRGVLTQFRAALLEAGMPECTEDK

[3] = biological target: T3, SFB-Mxi1 expressed in HeLa cells (human) (UniProt P50539); test: co-IP; HeLa cells transfected with SFB-Mxi1 or SFB-UBE2O for 24 h, MG132 (10 uM) for 4 h; co-IP with S beads, western blotting for the endogenous partner
T3 sequence: T1 sequence

[4] = biological target: T4, endogenous Mxi1 (human (endogenous in HeLa, H1299, A549)) (UniProt P50539); test: co-IP; endogenous proteins; HeLa, H1299 and A549 cells, MG132 (10 uM) for 4 h; co-IP with anti-IgG, Mxi1 or UBE2O antibodies plus protein A/G agarose, western blotting
T4 sequence: T1 sequence

[5] = biological target: T5, SFB-UBE2O expressed in HeLa cells (human) (UniProt Q9C0C9); test: co-IP; HeLa cells transfected with SFB-Mxi1 or SFB-UBE2O for 24 h, MG132 (10 uM) for 4 h; co-IP with S beads, western blotting for the endogenous partner
T5 sequence: T2 sequence

[6] = biological target: T6, GST-Mxi1 fusion protein (human) (UniProt P50539); test: pull-down; purified GST or GST-Mxi1 coupled to GST beads, incubated overnight with lysate of HEK293T cells transfected with SFB-UBE2O; washed five times with NETN buffer; immunoblotting; only the target purified
T6 sequence: T1 sequence

- binding [3]: binds
- binding [4]: binds
B3: endogenous UBE2O (enzyme, UniProt Q9C0C9 1-1292)
chain: T2 sequence

- binding [5]: binds
B4: endogenous Mxi1 (protein, UniProt P50539 1-228)
chain: T1 sequence

The next lines start with the binder.

B1: Ubiquitin-conjugating enzyme E2O (UBE2O), exogenously expressed in HEK293T cells (enzyme, UniProt Q9C0C9 1-1292)
chain: T2 sequence
- binding [1]: binds

B2: MAX interactor 1 (Mxi1), exogenously expressed in HEK293T cells (protein, UniProt P50539 1-228)
chain: T1 sequence
- binding [2]: binds

B5: SFB-UBE2O expressed in HEK293T cells (enzyme, UniProt Q9C0C9 1-1292)
chain: T2 sequence
- binding [6]: binds
